Assay results published in patent EP0819124B1, “AZOLE COMPOUNDS WITH ANTIMYCOTIC ACTIVITY FOR HUMAN AND VETERINARY USE” (ZAMBON GROUP S.p.A., priority 1995, dated 1996).
For at least one compound, name, drawing or mass did not settle the structure.

System: Candida albicans 1040
Assay: In vivo antimycotic activity in mice experimentally infected by C. albicans, oral route
Design: species or system Charles River white mice (CD1 strain)
Settings: compared with the reference compounds
Protocol: Charles River white mice (CD1 strain) weighing from 23 to 25 g, normo-feeded with standard diet and water ad libitum were used.
A suspension (0.2 ml containing 2.5x10^7 cells/ml) of Candida albicans 1040 in physiologic solution was injected to each animal by venous route. Immediately after the infection and after 4, 24 and 48 hours, the animals received by oral route (in arabic gum at 2%) doses increasing in a geometrical progression of the compound to be tested. The infected group was used as control.
The observation of the mortality of the mice was prolonged up to 14 days. From the number of survived animals for each concentration the average protective dose (DP50) was calculated by probits analysis (L.Lison - "Statistica applicata alla biologia sperimentale. La programmazione dell'esperimento e l'analisi dei risultati" - Casa Editrice Ambrosiana, 1961).
Compounds R1 and R2 were used as comparative compounds.
Fluconazole and Itraconazole were used as reference compounds.

CC(COC(F)(F)C(F)F)C(O)(Cn1cncn1)c1ccc(Cl)cc1Cl (racemic) [Compound 1, (±)-1-(1H-1,2,4-triazolyl)-2-hydroxy-2-(2,4-dichlorophenyl)-3-methyl-4-(1,1,2,2-tetrafluoroethoxy)butane]
average protective dose (PD50), statement in words: characteristics similar to those of Fluconazole
